Results: patent US12099068B2, “Biomarkers for graft-versus-host disease” (Incyte Corporation, priority 2018, dated 2024)

B1: NFATC3 (protein, UniProt Q12968 2-1075, looked up)
Nuclear factor of activated …: TTANCGAHDELDFKLVFGEDGAPAPPPPGSRPADLEPDDCASIYIFNVDPPPSTLTTPLCLPHHGLPSHSSVLSPSFQLQSHKNYEGTCEIPESKYSPLGGPKPFECPSIQITSISPNCHQELDAHEDDLQINDPEREFLERPSRDHLYLPLEPSYRESSLSPSPASSISSRSWFSDASSCESLSHIYDDVDSELNEAAARFTLGSPLTSPGGSPGGCPGEETWHQQYGLGHSLSPRQSPCHSPRSSVTDENWLSPRPASGPSSRPTSPCGKRRHSSAEVCYAGSLSPHHSPVPSPGHSPRGSVTEDTWLNASVHGGSGLGPAVFPFQYCVETDIPLKTRKTSEDQAAILPGKLELCSDDQGSLSPARETSIDDGLGSQYPLKKDSCGDQFLSVPSPFTWSKPKPGHTPIFRTSSLPPLDWPLPAHFGQCELKIEVQPKTHHRAHYETEGSRGAVKASTGGHPVVKLLGYNEKPINLQMFIGTADDRYLRPHAFYQVHRITGKTVATASQEIIIASTKVLEIPLLPENNMSASIDCAGILKLRNSDIELRKGETDIGRKNTRVRLVFRVHIPQPSGKVLSLQIASIPVECSQRSAQELPHIEKYSINSCSVNGGHEMVVTGSNFLPESKIIFLEKGQDGRPQWEVEGKIIREKCQGAHIVLEVPPYHNPAVTAAVQVHFYLCNGKRKKSQSQRFTYTPVLMKQEHREEIDLSSVPSLPVPHPAQTQRPSSDSGCSHDSVLSGQRSLICSIPQTYASMVTSSHLPQLQCRDESVSKEQHMIPSPIVHQPFQVTPTPPVGSSYQPMQTNVVYNGPTCLPINAASSQEFDSVLFQQDATLSGLVNLGCQPLSSIPFHSSNSGSTGHLLAHTPHSVHTLPHLQSMGYHCSNTGQRSLSSPVADQITGQPSSQLQPITYGPSHSGSATTASPAASHPLASSPLSGPPSPQLQPMPYQSPSSGTASSPSPATRMHSGQHSTQAQSTGQGGLSAPSSLICHSLCDPASFPPDGATVSIKPEPEDREPNFATIGLQDITLDDVNEIIGRDMSQISVSQGAGVSRQAPLPSPESLDLGRSDGL
B2: TN-R (protein, UniProt Q92752 32-1358, looked up)
Tenascin-R: QLEVTTERVQRQSVEEEGGIANYNTSSKEQPVVFNHVYNINVPLDNLCSSGLEASAEQEVSAEDETLAEYMGQTSDHESQVTFTHRINFPKKACPCASSAQVLQELLSRIEMLEREVSVLRDQCNANCCQESAATGQLDYIPHCSGHGNFSFESCGCICNEGWFGKNCSEPYCPLGCSSRGVCVDGQCICDSEYSGDDCSELRCPTDCSSRGLCVDGECVCEEPYTGEDCRELRCPGDCSGKGRCANGTCLCEEGYVGEDCGQRQCLNACSGRGQCEEGLCVCEEGYQGPDCSAVAPPEDLRVAGISDRSIELEWDGPMAVTEYVISYQPTALGGLQLQQRVPGDWSGVTITELEPGLTYNISVYAVISNILSLPITAKVATHLSTPQGLQFKTITETTVEVQWEPFSFSFDGWEISFIPKNNEGGVIAQVPSDVTSFNQTGLKPGEEYIVNVVALKEQARSPPTSASVSTVIDGPTQILVRDVSDTVAFVEWIPPRAKVDFILLKYGLVGGEGGRTTFRLQPPLSQYSVQALRPGSRYEVSVSAVRGTNESDSATTQFTTEIDAPKNLRVGSRTATSLDLEWDNSEAEVQEYKVVYSTLAGEQYHEVLVPRGIGPTTRATLTDLVPGTEYGVGISAVMNSQQSVPATMNARTELDSPRDLMVTASSETSISLIWTKASGPIDHYRITFTPSSGIASEVTVPKDRTSYTLTDLEPGAEYIISVTAERGRQQSLESTVDAFTGFRPISHLHFSHVTSSSVNITWSDPSPPADRLILNYSPRDEEEEMMEVSLDATKRHAVLMGLQPATEYIVNLVAVHGTVTSEPIVGSITTGIDPPKDITISNVTKDSVMVSWSPPVASFDYYRVSYRPTQVGRLDSSVVPNTVTEFTITRLNPATEYEISLNSVRGREESERICTLVHTAMDNPVDLIATNITPTEALLQWKAPVGEVENYVIVLTHFAVAGETILVDGVSEEFRLVDLLPSTHYTATMYATNGPLTSGTISTNFSTLLDPPANLTASEVTRQSALISWQPPRAEIENYVLTYKSTDGSRKELIVDAEDTWIRLEGLLENTDYTVLLQAAQDTTWSSITSTAFTTGGRVFPHPQDCAQHLMNGDTLSGVYPIFLNGELSQKLQVYCDMTTDGGGWIVFQRRQNGQTDFFRKWADYRVGFGNVEDEFWLGLDNIHRITSQGRYELRVDMRDGQEAAFASYDRFSVEDSRNLYKLRIGSYNGTAGDSLSYHQGRPFSTEDRDNDVAVTNCAMSYKGAWWYKNCHRTNLNGKYGESRHSQGINWYHWKGHEFSIPFVEMKMRPYNHRLMAGRKRQSLQF
B3: FOSB (protein, UniProt P53539 1-338, looked up)
Protein FosB: MFQAFPGDYDSGSRCSSSPSAESQYLSSVDSFGSPPTAAASQECAGLGEMPGSFVPTVTAITTSQDLQWLVQPTLISSMAQSQGQPLASQPPVVDPYDMPGTSYSTPGMSGYSSGGASGSGGPSTSGTTSGPGPARPARARPRRPREETLTPEEEEKRRVRRERNKLAAAKCRNRRRELTDRLQAETDQLEEEKAELESEIAELQKEKERLEFVLVAHKPGCKIPYEEGPGPGPLAEVRDLPGSAPAKEDGFSWLLPPPPPPPLPFQTSQDAPPNLTASLFTHSEVQVLGDPFPVVNPSYTSSFVLTCPEVSAFAGAQRTSGSDQPSDPLNSPSLLAL
B4: TWEAK (protein, UniProt O43508 94-249, looked up)
Tumor necrosis factor ligand …: SAPKGRKTRARRAIAAHYEVHPRPGQDGAQAGVDGTVSGWEEARINSSSPLRYNRQIGEFIVTRAGLYYLYCQVHFDEGKAVYLKLDLLVDGVLALRCLEEFSATAASSLGPQLRLCQVSGLLALRPGSSLRIRTLPWAHLKAAPFLTYFGLFQVH
B5: N2DL-2 (protein, UniProt Q9BZM5 26-217, looked up)
UL16-binding protein 2: GRADPHSLCYDITVIPKFRPGPRWCAVQGQVDEKTFLHYDCGNKTVTPVSPLGKKLNVTTAWKAQNPVLREVVDILTEQLRDIQLENYTPKEPLTLQARMSCEQKAEGHSSGSWQFSFDGQIFLLFDSEKRMWTTVHPGARKMKEKWENDKVVAMSFHYFSMGDCIGWLEDFLMGMDSTLEPSAGAPLAMSS
B6: KYNU (protein, UniProt Q16719 1-465, looked up)
Kynureninase: MEPSSLELPADTVQRIAAELKCHPTDERVALHLDEEDKLRHFRECFYIPKIQDLPPVDLSLVNKDENAIYFLGNSLGLQPKMVKTYLEEELDKWAKIAAYGHEVGKRPWITGDESIVGLMKDIVGANEKEIALMNALTVNLHLLMLSFFKPTPKRYKILLEAKAFPSDHYAIESQLQLHGLNIEESMRMIKPREGEETLRIEDILEVIEKEGDSIAVILFSGVHFYTGQHFNIPAITKAGQAKGCYVGFDLAHAVGNVELYLHDWGVDFACWCSYKYLNAGAGGIAGAFIHEKHAHTIKPALVGWFGHELSTRFKMDNKLQLIPGVCGFRISNPPILLVCSLHASLEIFKQATMKALRKKSVLLTGYLEYLIKHNYGKDKAATKKPVVNIITPSHVEERGCQLTITFSVPNKDVFQELEKRGVVCDKRNPNGIRVAPVPLYNSFHDVYKFTNLLTSILDSAETKN
B7: CNTN1 (protein, UniProt Q12860 21-993, looked up)
Contactin-1: EFTWYRRYGHGVSEEDKGFGPIFEEQPINTIYPEESLEGKVSLNCRARASPFPVYKWRMNNGDVDLTSDRYSMVGGNLVINNPDKQKDAGIYYCLASNNYGMVRSTEATLSFGYLDPFPPEERPEVRVKEGKGMVLLCDPPYHFPDDLSYRWLLNEFPVFITMDKRRFVSQTNGNLYIANVEASDKGNYSCFVSSPSITKSVFSKFIPLIPIPERTTKPYPADIVVQFKDVYALMGQNVTLECFALGNPVPDIRWRKVLEPMPSTAEISTSGAVLKIFNIQLEDEGIYECEAENIRGKDKHQARIYVQAFPEWVEHINDTEVDIGSDLYWPCVATGKPIPTIRWLKNGYAYHKGELRLYDVTFENAGMYQCIAENTYGAIYANAELKILALAPTFEMNPMKKKILAAKGGRVIIECKPKAAPKPKFSWSKGTEWLVNSSRILIWEDGSLEINNITRNDGGIYTCFAENNRGKANSTGTLVITDPTRIILAPINADITVGENATMQCAASFDPALDLTFVWSFNGYVIDFNKENIHYQRNFMLDSNGELLIRNAQLKHAGRYTCTAQTIVDNSSASADLVVRGPPGPPGGLRIEDIRATSVALTWSRGSDNHSPISKYTIQTKTILSDDWKDAKTDPPIIEGNMEAARAVDLIPWMEYEFRVVATNTLGRGEPSIPSNRIKTDGAAPNVAPSDVGGGGGRNRELTITWAPLSREYHYGNNFGYIVAFKPFDGEEWKKVTVTNPDTGRYVHKDETMSPSTAFQVKVKAFNNKGDGPYSLVAVINSAQDAPSEAPTEVGVKVLSSSEISVHWEHVLEKIVESYQIRYWAAHDKEEAANRVQVTSQEYSARLENLLPDTQYFIEVGACNSAGCGPPSDMIEAFTKKAPPSQPPRIISSVRSGSRYIITWDHVVALSNESTVTGYKVLYRPDGQHDGKLYSTHKHSIEVPIPRDGEYVVEVRAHSDGGDGVVSQVKIS
B8: MVK (protein, UniProt Q03426 1-396, looked up)
Mevalonate kinase: MLSEVLLVSAPGKVILHGEHAVVHGKVALAVSLNLRTFLRLQPHSNGKVDLSLPNIGIKRAWDVARLQSLDTSFLEQGDVTTPTSEQVEKLKEVAGLPDDCAVTERLAVLAFLYLYLSICRKQRALPSLDIVVWSELPPGAGLGSSAAYSVCLAAALLTVCEEIPNPLKDGDCVNRWTKEDLELINKWAFQGERMIHGNPSGVDNAVSTWGGALRYHQGKISSLKRSPALQILLTNTKVPRNTRALVAGVRNRLLKFPEIVAPLLTSIDAISLECERVLGEMGEAPAPEQYLVLEELIDMNQHHLNALGVGHASLDQLCQVTRARGLHSKLTGAGGGGCGITLLKPGLEQPEVEATKQALTSCGFDCLETSIGAPGVSIHSATSLDSRVQQALDGL
B9: HSD11B1 (protein, UniProt P28845 1-292, looked up)
11-beta-hydroxysteroid …: MAFMKKYLLPILGLFMAYYYYSANEEFRPEMLQGKKVIVTGASKGIGREMAYHLAKMGAHVVVTARSKETLQKVVSHCLELGAASAHYIAGTMEDMTFAEQFVAQAGKLMGGLDMLILNHITNTSLNLFHDDIHHVRKSMEVNFLSYVVLTVAALPMLKQSNGSIVVVSSLAGKVAYPMVAAYSASKFALDGFFSSIRKEYSVSRVNVSITLCVLGLIDTETAMKAVSGIVHMQAAPKEECALEIIKGGALRQEEVYYDSSLWTTLLIRNPCRKILEFLYSTSYNMDRFINK

Legend:
plasma proteins [1] = assay: OLINK proximity extension assay of baseline plasma, CR compared to PD/Death, updated classification, Example 5 (Table 11); assay type: in vivo, human; conditions: itacitinib 200 or 300 mg QD plus corticosteroids, response at day 28
plasma proteins [2] = assay: Proteins of Table 11 stably expressed in complete responders between days 1 and 28, Example 5 (Table 12); assay type: in vivo, human; conditions: day 1 vs day 28
Procedure: Due to the limited sample size, steroid-naive (N=10) and steroid-refractory (N=18) patients were combined for further analysis. Broad proteomic analysis of over 1000 proteins was conducted by OLINK Proteomics (Watertown, MA) using a proximity extension assay as described by the manufacturer. Data are presented as normalized protein expression (NPX) in log 2 scale. Statistical differences were evaluated using unpaired and paired t tests, one-way […] (ANOVA), and Pearson Correlation. Significance was conferred when P<0.05.

Molecule | Fold Change, Down-Regulated in CR Compared to PD/Death (plasma proteins [1]) | Fold Change (D1 vs D28), proteins Down-Regulated in CR Compared to PD/Death (plasma proteins [2]) | Fold Change, Up-Regulated in CR Compared to PD/Death (plasma proteins [1]) | Fold Change (D1 vs D28), proteins Up-Regulated in CR Compared to PD/Death (plasma proteins [2])
B1 | −2.5865 | 1.0623 | – | –
B2 | – | – | 1.8732 | 1.1234
B3 | −2.6284 | 1.0051 | – | –
B4 | – | – | 1.8183 | −1.2551
B5 | −2.5399 | −1.1284 | – | –
B6 | −2.9203 | −1.0138 | – | –
B7 | – | – | 1.791 | 1.1978
B8 | −2.6813 | −1.2699 | – | –
B9 | – | – | 1.7507 | 1.1146
